# In PMC6925144, “A prospective compound screening contest identified broader inhibitors for Sirtuin 1” (Scientific Reports, 2019):
# By UniProt entry, the sequences of proteins in these tests, tags left out. Residues count along the entry.
# UniProt Q96EB6, 2-747 limits assumed: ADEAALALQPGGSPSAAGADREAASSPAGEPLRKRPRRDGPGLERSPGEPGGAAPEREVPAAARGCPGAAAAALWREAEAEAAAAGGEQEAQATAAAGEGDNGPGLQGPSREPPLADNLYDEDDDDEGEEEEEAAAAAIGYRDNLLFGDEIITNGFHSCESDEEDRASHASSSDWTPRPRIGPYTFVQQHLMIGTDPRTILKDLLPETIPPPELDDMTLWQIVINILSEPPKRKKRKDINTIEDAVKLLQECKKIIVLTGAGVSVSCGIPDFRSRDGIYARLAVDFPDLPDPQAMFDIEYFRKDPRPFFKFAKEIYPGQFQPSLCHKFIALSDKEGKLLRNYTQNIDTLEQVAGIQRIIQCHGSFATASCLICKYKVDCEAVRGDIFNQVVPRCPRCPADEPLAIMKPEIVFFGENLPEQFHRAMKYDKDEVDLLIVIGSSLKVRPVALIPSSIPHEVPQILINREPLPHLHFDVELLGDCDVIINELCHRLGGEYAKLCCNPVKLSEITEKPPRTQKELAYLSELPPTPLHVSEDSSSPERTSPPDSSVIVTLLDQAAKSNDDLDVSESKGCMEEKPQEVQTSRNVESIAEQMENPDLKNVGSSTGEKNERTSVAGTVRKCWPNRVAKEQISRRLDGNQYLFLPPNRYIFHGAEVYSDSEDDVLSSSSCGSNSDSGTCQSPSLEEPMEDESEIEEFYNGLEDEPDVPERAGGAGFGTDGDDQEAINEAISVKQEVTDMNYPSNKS
# In all, about 3,200 compounds were measured (“TSA(with NAD+) / Primary screening (TSA) / delta Tm (K)”: median about -0.04, highest 2% from about 0.37 on). This is one part of the list.
# Target: NAD-dependent deacetylase Sirtuin 1 (human, UniProt Q96EB6)
# Assay: primary screen, delta tm
# Set-up: single well (n = 1, as 'the same TSA')
# Settings: 10 µM
row,Compound,TSA(with NAD+) / Primary screening (TSA) / delta Tm (K)
1,Cc1nn(CC(=O)N2CCC(N3CCCC3C(N)=O)CC2)cc1-c1ccccc1 (centres unmarked),-0.06
2,C=C(Br)CN,0.06
3,O=C(Nc1ccc2c3c(cccc13)CC2)c1cnc2sccn2c1=O,0.28
4,C=CC(C)N (centres unmarked),-0.01
5,Cn1ccc(NC(=O)C(Cc2c[nH]c3ccccc23)NC(=O)c2cccs2)n1 (centres unmarked),-0.23
6,CC(C)(C)c1noc(CCCC(=O)Nc2cc(C(N)=O)ccc2N2CCCC2)n1,-0.21
7,O=c1[nH]c2ccccc2cc1CSc1nccn1Cc1ccccn1,-0.02
8,CC(C)c1ccc(/C=C2/CS(=O)(=O)c3ccccc3C2=O)cc1[N+](=O)[O-],-0.61
9,CCN(C(=O)c1cc(C)cc(Br)c1)c1ccncc1,-0.23
10,O=C(Nc1ccc2nc(N3CCOCC3)sc2c1)C1=COCCO1,-0.01
11,CNC(=O)c1ccc(Cl)cc1NC(=O)C1CC(=O)N(c2ccc3c(c2)OCO3)C1 (centres unmarked),-0.04
12,O=C(CCc1ccc(Cl)cc1)N1CCN(c2ccnc3cc(Cl)ccc23)CC1,0.02
13,Cn1cc(CSc2cccc(F)c2)cn1,-0.23
14,Cc1cccc2c(=O)n(CC(=O)N(C)c3ccc4ccccc4c3)cnc12,0.06
15,Cc1cc(C(=O)Nc2cc(C(N)=O)ccc2N2CCCCC2)c2ccccc2n1,-0.16
16,Cc1nn(-c2ccccc2)c(Cl)c1CN1CCN(c2ncnc3c2cnn3C)CC1,-0.18
17,Fc1cc(CSc2nnc(NCC3CCCO3)s2)c2ncccc2c1 (centres unmarked),-0.04
18,CC1CCCN(CCN2CCN(c3ccc(F)cc3)CC2)C1 (centres unmarked),-0.28
19,Cc1ccc(C(=O)NCC(=O)OC(C)C(=O)Nc2ccc(C(N)=O)cc2)cc1 (centres unmarked),-0.12
20,Cc1ccc(N(C)S(=O)(=O)c2cccc(C(=O)NNC(=O)C(C)Oc3ccc(C#N)cc3)c2)cc1 (centres unmarked),0.09

row,Compound,TSA(with NAD+) / Primary screening (TSA) / delta Tm (K)
1,CCN(Cc1ccco1)C(=O)Cc1sc(S)nc1C,-0.05
2,O=C(O)c1cncnc1/C=C/c1ccc2ccccc2c1,-0.18
3,CCCCCCCCNC(=O)/C(C#N)=C/c1c[nH]c2ccccc12,0.43
4,Cc1nn(C)c(C)c1Nc1ncnc2ccsc12,-0.24
5,CC(CCc1ccc(O)cc1)NC(=O)C(C)SCc1nc2scc(-c3ccccc3)c2c(=O)[nH]1 (centres unmarked),0.03
6,Cc1sc2nc(CSc3ccccc3)nc(N3CCCC(C(N)=O)C3)c2c1C (centres unmarked),-0.18
7,O=c1oc2ccc3ccccc3c2cc1-c1nc(-c2ccc(Br)cc2)cs1,-0.11
8,Cc1ccc(C(C)(C)C)cc1S(=O)(=O)Nc1cccc(C(=O)NNC(=O)c2cccc(S(=O)(=O)Nc3cccc(C(F)(F)F)c3)c2)c1,0.65
9,Cc1cnc(C(=O)NC(Cc2ccccc2)C(=O)N2CCCC2)cn1 (centres unmarked),-0.11
10,O=C(Nc1cccc(-c2nc(C3CC3)no2)c1)c1cccc(NC(=O)C2CCCCC2)c1,0.19
11,NC(=O)C1CCN(C(=O)NCc2ccccc2CN2CCOCC2)C1 (centres unmarked),-0.08
12,O=C(COC(=O)C12CC3CC(C1)CC(c1ccccc1)(C3)C2)N1CCc2ccccc21,-0.18
13,Cc1ccc(NC(=O)CN2CCN(C(=O)c3ccc(-c4ccc(Cl)cc4)o3)CC2)cc1,0.02
14,CC(NCc1cccc2c1OCO2)c1ccc2c(c1)NC(=O)CO2 (centres unmarked),-0.08
15,CCC(O)CCN (centres unmarked),-0.28
16,O=C(CN1CCN(Cc2cscn2)CC1)NC(c1ccccc1)C1CC1 (centres unmarked),0.03
17,C=CCOc1cccc(/C=C2\Oc3cc(O)ccc3C2=O)c1,-0.03
18,Cc1nn(-c2ccccc2)c2sc(C(=O)NCc3cccc(NC(=O)C4CC4)c3)cc12,0.23
19,Cc1[nH]c2ccc(Br)cc2c1CC(=O)N1CCC(C(N)=O)CC1,-0.08
20,NC(=O)C1Cc2ccccc2CN1C(=O)Cc1ccc2c(c1)CCCC2 (centres unmarked),-0.13

# Nothing new here: entries from further up.
row,Compound,TSA(with NAD+) / Primary screening (TSA) / delta Tm (K)
14,CC(NCc1cccc2c1OCO2)c1ccc2c(c1)NC(=O)CO2 (centres unmarked),-0.08
15,CCC(O)CCN (centres unmarked),-0.28

# (cont.)

row,Compound,TSA(with NAD+) / Primary screening (TSA) / delta Tm (K)
1,Cc1nc(N2CCC(C(N)=O)CC2)c2c(CC(C)C)csc2n1,-0.02
2,Cc1ccc(O)c(C(=O)NC2CCCNC2=O)c1 (centres unmarked),-0.13
3,CCCCn1c(N)c(N(CC(C)C)C(=O)c2cccc(S(=O)(=O)N(C)c3ccccc3)c2)c(=O)[nH]c1=O,-0.05
4,O=C(Nc1ccc2c(c1)C(=O)NC2=O)Nc1cnc[nH]1,-0.02
5,CC1(c2cccc(NC(=O)c3ccc4ccccc4n3)c2)NC(=O)NC1=O (centres unmarked),-0.15
6,CNC(=O)c1ccc(CSc2nccn2Cc2ccccn2)cc1,0.07
7,CCn1c(SCc2cccc(F)c2)nc2ccsc2c1=O,-0.19
8,Cc1cc(N2CCN(CC(=O)Nc3ccccc3C(N)=O)CC2)nc(C(C)C)n1,0.06
9,O=C(C1=C(O)C(=O)N(CCCN2CCOCC2)C1c1ccco1)c1ccco1 (centres unmarked),-0.06
10,O=C1CN(c2ncnc3c2oc2ccccc23)CCN1,-0.12
11,CCOc1nc2cc(C(=O)OC(C)Cn3cccn3)ccc2[nH]1 (centres unmarked),-0.11
12,O=C(/C=C/c1cn(-c2ccccc2)nc1-c1cc2ccccc2o1)NCc1nnc2ccccn12,-0.04
13,CC(NC(=O)CN1C(=O)C2CC=CCC2C1=O)C12CC3CC(CC(C3)C1)C2 (centres unmarked),-0.03
14,CCC(C)(O)CN (centres unmarked),-0.19
15,NC(=O)C1COCCN1S(=O)(=O)c1c(Cl)nc2ccccn12 (centres unmarked),-0.02
16,Cc1ccc(C(=O)C2=C(O)C(=O)N(CCCN3CCOCC3)C2c2ccc(Cl)cc2)cc1 (centres unmarked),0.03
17,NC(=O)CCn1cnc2sccc2c1=O,-0.03
18,O=C(Nc1ccccc1Oc1ccccc1)c1cc(=O)c2ccccc2o1,-0.09
19,CN(CC(=O)NCc1ccco1)C(=O)c1ccc(-n2cccn2)cc1,-0.11
